Laboratory results published in US6117849A, “S-(+)-adenosylmethionine and 3'-azido-2', 3'-dideoxy-nucleoside complexes as potent inhibitors of HIV-replication” (Symbio Herborn Group GmbH & Co., priority 1996, dated 2000).
At least one read-out could not be matched to a standard name with certainty.

Assay: SAM and AZT levels in HIV-infected patients (plasma, CSF)
Conditions: AZT alone, 250 mg, corresponding data

SMILES: Cc1cn([C@H]2C[C@H](N=[N+]=[N-])[C@@H](CO)O2)c(=O)[nH]c1=O [AZT, 3'-azido-2',3'-deoxythymidine]
- AZT level: 0.01 ng/mL
